Measurements taken from article PMC12009302.
These are yes or no findings as the source states them, for the method shown. In cells and extracts the contact can be indirect. Some binding calls cover weakened binding; strength is not graded here. For some assays here: Tags and fused reporters may be left off the sequences shown.

Columns and labels:
Flag-LIPT1 = molecular target: T1, Flag-LIPT1 (UniProt Q9Y234); assay: co-IP; cells lysed in IP lysis buffer with protease inhibitor; supernatant incubated with antibody overnight at 4 °C; protein A/G magnetic beads; immunoblot; endogenous and exogenous (Flag-LIPT1) set-ups
T1 sequence: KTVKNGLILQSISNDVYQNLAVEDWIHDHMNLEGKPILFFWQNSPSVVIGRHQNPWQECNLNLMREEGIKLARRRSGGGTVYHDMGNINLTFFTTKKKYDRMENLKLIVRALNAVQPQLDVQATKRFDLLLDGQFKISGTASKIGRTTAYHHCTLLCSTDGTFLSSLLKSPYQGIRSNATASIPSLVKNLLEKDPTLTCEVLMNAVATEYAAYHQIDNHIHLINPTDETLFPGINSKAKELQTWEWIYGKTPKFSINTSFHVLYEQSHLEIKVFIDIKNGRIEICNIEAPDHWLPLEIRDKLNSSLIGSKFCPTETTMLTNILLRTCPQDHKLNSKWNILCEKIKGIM

[1] = molecular target: T2, LIPT1 (endogenous) (human (endogenous in the paper's human cell lines; line not stated)) (UniProt Q9Y234); assay: as above
T2 sequence: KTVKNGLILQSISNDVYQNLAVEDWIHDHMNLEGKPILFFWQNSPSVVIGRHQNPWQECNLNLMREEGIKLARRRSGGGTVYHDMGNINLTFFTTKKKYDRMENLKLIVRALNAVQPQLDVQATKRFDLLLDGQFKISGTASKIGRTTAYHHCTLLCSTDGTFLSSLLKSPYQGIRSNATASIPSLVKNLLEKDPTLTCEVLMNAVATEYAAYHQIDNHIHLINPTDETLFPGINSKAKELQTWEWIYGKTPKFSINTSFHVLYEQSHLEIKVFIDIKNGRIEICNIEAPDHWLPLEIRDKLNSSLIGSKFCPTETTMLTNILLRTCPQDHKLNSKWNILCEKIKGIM

B1: E3 ubiquitin-protein ligase MGRN1 (enzyme, UniProt O60291 1-552)
chain: MGSILSRRIAGVEDIDIQANSAYRYPPKSGNYFASHFFMGGEKFDTPHPEGYLFGENMDLNFLGSRPVQFPYVTPAPHEPVKTLRSLVNIRKDSLRLVRYKDDADSPTEDGDKPRVLYSLEFTFDADARVAITIYCQASEEFLNGRAVYSPKSPSLQSETVHYKRGVSQQFSLPSFKIDFSEWKDDELNFDLDRGVFPVVIQAVVDEGDVVEVTGHAHVLLAAFEKHMDGSFSVKPLKQKQIVDRVSYLLQEIYGIENKNNQETKPSDDENSDNSNECVVCLSDLRDTLILPCRHLCLCTSCADTLRYQANNCPICRLPFRALLQIRAVRKKPGALSPVSFSPVLAQSLEHDEHSCPFKKSKPHPASLASKKPKRETNSDSVPPGYEPISLLEALNGLRAVSPAIPSAPLYEEITYSGISDGLSQASCPLAAIDHILDSSRQKGRPQSKAPDSTLRSPSSPIHEEDEEKLSEDVDAPPPLGGAELALRESSSPESFITEEVDESSSPQQGTRAASIENVLQDSSPEHCGRGPPADIYLPALGPDSCSVGIDE
binding (Flag-LIPT1): binds
binding [1]: binds
